This list holds what a sample rich in targets with a hit left over. Single values of this set are uncertain. Only a part is listed here, and it is no random draw.
compound: COC(=O)/C=C/c1ccccc1 [methyl cinnamate]; assay: log2 ratio of iodoacetamide-alkyne labeling of the cysteine site, DMSO over compound (competition); higher = stronger covalent engagement of the cysteine by the compound, active = 1 or more; conditions: 500 µM; treatment time 1 h; system: HEK293T cell lysate
Procedure, shortened: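 For each cysteine, the log2 competition ratio is mean control-channel reporter intensity over mean compound-channel reporter intensity. HEK293T lysate (2 mg/mL) was exposed to vehicle or electrophile (500 µM, 1 h, ambient temperature), labelled with iodoacetamide alkyne (1 h), clicked to sCIP-TMT reagents, digested overnight with trypsin at 37 °C, streptavidin-enriched and analysed by Orbitrap Eclipse LC-MS/MS with FAIMS and FragPipe. Cysteines quantified in only one of three replicates, each with duplicate channels, were excluded.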

By UniProt entry, the sequences of proteins in these tests, tags left out. Where a name states a change or a piece, a line headed by the entry shows the natural chain unless it says otherwise.
UniProt Q9BWD1: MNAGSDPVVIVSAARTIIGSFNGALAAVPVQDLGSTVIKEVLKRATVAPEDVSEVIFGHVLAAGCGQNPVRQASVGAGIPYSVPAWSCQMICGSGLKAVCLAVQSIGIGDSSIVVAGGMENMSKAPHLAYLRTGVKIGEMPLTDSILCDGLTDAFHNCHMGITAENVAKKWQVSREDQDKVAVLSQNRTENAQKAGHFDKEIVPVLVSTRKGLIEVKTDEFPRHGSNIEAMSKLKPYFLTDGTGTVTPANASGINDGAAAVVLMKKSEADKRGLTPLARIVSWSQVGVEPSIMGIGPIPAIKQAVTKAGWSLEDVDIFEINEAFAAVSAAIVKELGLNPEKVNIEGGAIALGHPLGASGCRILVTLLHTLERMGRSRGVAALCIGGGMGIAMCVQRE
UniProt Q9BWC9: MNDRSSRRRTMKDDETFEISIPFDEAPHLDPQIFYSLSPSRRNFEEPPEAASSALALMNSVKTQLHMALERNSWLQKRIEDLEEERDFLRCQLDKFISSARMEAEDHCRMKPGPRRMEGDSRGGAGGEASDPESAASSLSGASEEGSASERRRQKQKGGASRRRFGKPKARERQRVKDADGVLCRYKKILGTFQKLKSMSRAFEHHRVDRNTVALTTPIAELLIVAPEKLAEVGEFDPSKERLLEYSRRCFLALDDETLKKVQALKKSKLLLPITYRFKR
UniProt Q9BW83: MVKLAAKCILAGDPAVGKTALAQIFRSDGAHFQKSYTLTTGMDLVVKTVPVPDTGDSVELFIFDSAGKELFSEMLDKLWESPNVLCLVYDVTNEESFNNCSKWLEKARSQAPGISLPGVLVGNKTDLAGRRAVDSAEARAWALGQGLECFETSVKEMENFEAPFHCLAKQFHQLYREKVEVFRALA
UniProt Q9H2J4: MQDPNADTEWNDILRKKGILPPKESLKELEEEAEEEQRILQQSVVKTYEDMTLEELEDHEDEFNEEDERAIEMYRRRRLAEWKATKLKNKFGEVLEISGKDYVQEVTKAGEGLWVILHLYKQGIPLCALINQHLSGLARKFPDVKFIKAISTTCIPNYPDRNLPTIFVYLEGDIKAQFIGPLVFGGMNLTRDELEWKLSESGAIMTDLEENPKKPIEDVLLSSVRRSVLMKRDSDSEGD
UniProt Q9C0J8: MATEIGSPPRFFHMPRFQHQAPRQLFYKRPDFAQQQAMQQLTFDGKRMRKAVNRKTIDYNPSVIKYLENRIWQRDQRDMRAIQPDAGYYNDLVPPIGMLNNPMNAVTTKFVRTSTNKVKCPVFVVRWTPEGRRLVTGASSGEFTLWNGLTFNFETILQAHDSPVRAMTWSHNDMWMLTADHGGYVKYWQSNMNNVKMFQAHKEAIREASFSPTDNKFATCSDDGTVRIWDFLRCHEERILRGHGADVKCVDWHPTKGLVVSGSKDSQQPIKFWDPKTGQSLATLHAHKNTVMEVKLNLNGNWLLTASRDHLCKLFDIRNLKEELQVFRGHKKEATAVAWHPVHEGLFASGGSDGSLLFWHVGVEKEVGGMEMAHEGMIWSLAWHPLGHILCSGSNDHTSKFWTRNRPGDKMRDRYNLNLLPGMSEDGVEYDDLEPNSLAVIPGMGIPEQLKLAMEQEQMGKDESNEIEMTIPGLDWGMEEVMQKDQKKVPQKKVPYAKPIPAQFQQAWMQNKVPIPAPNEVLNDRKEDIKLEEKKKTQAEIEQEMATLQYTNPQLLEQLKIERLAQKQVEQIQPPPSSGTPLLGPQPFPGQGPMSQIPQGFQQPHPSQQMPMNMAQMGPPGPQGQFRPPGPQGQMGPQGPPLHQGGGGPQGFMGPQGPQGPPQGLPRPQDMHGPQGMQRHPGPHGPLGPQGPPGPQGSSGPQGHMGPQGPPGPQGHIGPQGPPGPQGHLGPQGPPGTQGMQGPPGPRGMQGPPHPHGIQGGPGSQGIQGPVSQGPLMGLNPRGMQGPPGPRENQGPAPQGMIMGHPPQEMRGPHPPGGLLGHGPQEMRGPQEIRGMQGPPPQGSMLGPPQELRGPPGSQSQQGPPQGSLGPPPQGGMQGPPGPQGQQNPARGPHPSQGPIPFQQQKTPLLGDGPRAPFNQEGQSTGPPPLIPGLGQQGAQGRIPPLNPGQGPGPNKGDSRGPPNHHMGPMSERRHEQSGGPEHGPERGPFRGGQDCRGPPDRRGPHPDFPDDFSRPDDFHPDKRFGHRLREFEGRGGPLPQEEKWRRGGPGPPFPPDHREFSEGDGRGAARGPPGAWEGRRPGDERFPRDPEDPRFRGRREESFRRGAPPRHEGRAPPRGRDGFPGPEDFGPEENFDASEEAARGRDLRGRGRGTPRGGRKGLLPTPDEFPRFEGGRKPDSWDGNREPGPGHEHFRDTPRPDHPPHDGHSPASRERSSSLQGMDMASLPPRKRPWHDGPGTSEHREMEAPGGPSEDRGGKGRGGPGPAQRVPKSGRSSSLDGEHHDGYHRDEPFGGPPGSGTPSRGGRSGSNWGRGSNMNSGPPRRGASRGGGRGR
UniProt Q9BYG3: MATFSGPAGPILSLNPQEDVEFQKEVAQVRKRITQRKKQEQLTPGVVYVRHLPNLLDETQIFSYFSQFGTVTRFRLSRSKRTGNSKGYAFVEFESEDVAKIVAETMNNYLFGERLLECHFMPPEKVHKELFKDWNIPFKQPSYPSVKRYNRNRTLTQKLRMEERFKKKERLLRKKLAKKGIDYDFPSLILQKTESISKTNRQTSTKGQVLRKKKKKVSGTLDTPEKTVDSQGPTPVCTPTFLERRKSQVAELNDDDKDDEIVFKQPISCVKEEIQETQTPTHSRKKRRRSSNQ
UniProt Q9BZE9, whole entry, looked up: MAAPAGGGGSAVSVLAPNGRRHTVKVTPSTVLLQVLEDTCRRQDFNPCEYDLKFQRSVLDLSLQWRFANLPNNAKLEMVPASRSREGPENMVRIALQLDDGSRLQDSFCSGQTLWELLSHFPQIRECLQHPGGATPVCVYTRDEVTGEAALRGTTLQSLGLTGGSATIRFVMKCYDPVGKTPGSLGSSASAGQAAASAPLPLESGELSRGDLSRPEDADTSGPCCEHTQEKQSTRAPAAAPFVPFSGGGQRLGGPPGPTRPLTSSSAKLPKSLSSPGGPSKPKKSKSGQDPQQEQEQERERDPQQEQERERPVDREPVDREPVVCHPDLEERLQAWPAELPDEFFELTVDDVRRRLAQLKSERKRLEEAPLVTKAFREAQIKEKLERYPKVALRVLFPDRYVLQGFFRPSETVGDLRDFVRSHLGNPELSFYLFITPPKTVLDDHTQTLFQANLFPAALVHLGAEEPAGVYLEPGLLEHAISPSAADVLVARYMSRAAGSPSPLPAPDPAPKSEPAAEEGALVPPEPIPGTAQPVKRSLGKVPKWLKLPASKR
UniProt Q9H0D6: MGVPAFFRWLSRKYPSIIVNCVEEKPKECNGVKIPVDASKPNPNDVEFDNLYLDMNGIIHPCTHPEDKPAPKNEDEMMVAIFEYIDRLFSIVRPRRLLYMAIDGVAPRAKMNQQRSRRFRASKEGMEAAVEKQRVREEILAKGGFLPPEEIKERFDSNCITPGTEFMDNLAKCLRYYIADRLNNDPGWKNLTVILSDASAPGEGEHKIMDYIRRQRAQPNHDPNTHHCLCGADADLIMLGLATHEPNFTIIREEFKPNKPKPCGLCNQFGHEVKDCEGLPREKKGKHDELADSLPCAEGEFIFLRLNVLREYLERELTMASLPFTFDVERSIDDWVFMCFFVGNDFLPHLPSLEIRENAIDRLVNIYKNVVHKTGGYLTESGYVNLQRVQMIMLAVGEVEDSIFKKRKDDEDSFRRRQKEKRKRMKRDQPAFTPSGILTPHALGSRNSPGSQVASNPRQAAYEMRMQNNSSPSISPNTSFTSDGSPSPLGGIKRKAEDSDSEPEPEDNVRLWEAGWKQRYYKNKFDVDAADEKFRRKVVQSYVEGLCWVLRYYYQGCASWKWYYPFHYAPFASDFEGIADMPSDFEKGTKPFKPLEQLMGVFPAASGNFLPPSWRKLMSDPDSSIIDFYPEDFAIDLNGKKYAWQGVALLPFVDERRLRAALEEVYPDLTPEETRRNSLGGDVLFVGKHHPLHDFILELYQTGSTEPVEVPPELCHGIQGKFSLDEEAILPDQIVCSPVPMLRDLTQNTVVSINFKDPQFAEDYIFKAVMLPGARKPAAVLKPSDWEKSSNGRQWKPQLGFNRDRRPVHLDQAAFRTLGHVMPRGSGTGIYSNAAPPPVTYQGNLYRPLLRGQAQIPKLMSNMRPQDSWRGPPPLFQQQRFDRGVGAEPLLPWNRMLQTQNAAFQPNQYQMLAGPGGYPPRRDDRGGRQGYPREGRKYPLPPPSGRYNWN
UniProt Q9BSY9: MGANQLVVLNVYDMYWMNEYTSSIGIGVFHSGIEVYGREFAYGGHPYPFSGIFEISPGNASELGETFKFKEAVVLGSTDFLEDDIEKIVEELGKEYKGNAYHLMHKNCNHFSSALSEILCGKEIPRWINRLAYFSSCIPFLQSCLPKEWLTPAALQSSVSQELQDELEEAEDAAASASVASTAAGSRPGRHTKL
UniProt Q9H0C8: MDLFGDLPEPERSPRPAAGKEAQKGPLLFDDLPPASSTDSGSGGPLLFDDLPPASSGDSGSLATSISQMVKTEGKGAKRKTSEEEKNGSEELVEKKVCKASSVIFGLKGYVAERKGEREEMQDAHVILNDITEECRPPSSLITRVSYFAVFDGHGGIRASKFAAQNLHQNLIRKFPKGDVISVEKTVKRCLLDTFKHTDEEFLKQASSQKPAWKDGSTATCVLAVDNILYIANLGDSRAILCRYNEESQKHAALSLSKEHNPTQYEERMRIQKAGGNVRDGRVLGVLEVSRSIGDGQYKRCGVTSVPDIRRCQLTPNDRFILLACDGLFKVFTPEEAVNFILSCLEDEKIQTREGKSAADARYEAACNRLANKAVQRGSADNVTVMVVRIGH
UniProt Q9GZP4: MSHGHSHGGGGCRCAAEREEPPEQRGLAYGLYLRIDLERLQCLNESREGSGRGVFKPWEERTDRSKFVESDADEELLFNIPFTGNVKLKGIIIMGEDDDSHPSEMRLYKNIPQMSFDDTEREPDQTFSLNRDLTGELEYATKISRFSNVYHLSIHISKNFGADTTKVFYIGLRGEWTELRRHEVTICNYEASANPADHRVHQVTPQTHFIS
UniProt Q9BSJ5: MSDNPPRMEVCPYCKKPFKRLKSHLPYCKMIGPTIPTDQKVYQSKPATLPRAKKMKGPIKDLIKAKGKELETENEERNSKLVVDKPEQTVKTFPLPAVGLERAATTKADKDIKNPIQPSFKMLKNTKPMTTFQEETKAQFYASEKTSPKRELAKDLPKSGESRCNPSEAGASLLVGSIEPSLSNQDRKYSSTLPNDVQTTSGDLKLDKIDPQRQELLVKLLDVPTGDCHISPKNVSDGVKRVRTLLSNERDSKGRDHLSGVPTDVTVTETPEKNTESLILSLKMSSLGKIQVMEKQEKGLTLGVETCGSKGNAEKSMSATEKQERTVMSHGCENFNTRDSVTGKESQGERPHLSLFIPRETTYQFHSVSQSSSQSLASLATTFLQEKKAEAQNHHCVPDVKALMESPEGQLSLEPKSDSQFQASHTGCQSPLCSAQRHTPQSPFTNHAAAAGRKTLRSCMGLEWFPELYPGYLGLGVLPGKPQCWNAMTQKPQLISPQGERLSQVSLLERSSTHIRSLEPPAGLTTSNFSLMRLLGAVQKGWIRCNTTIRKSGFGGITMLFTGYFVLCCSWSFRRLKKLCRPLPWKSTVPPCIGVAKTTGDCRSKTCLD
UniProt Q9BV68: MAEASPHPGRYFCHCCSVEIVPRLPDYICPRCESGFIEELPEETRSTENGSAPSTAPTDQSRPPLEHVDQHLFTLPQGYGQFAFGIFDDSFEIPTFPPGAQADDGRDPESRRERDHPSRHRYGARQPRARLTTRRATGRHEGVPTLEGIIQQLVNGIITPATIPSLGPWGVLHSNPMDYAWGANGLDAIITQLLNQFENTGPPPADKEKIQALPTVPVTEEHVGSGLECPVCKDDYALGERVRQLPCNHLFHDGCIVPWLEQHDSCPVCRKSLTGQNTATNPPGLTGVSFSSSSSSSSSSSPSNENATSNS
UniProt Q9H204: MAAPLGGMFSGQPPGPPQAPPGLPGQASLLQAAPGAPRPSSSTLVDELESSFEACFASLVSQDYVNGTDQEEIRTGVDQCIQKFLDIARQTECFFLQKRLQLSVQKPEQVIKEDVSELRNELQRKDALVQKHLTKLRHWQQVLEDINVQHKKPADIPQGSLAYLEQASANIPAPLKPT
UniProt Q9BY77: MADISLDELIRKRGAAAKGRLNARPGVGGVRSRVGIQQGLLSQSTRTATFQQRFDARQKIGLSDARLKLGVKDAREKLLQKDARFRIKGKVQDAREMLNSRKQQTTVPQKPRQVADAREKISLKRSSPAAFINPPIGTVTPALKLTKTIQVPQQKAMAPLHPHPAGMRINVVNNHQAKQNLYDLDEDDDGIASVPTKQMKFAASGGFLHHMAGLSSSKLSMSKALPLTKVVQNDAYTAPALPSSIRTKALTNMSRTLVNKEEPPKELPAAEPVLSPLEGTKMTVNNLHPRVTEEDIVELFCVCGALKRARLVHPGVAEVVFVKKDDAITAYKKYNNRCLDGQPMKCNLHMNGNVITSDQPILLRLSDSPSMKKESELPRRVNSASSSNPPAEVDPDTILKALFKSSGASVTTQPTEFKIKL

log2 ratio of iodoacetamide-alkyne labeling, inactive:
ACAT2 C148 (UniProt Q9BWD1) 0.0878
NAT10 C486 (UniProt Q9H0A0) -0.182
UniProt Q9BWC9_C250 0.0843
UniProt Q9BW83_C166 -0.039
PDCL3 C127 (UniProt Q9H2J4) 0.145
GNL3 C280 (UniProt Q9BVP2) 0.0899
UniProt Q9BSH4_C256 -0.208
WDR33 C120 (UniProt Q9C0J8) 0.208
UniProt Q9BYG3_C269 0.367
ASPSCR1 C225 (UniProt Q9BZE9) 0.321
TARS2 C185 (UniProt Q9BW92) 0.201
SRSF8 C3 (UniProt Q9BRL6) 0.295
XRN2 C296 (UniProt Q9H0D6) 0.14
DESI2 C108 (UniProt Q9BSY9) 0.441
UBE2O C406 (UniProt Q9C0C9) 0.345
ILKAP C135 (UniProt Q9H0C8) -0.0887
UniProt Q9GZP4_C14 0.0997
RBM42 C385 (UniProt Q9BTD8) 0.0784
TOLLIP C229 (UniProt Q9H0E2) 0.013
TBCD C773 (UniProt Q9BTW9) -0.03
C17orf80 C164 (UniProt Q9BSJ5) 0.421
GPATCH1 C534 (UniProt Q9BRR8) -0.00611
DIDO1 C455 (UniProt Q9BTC0) 0.313
RNF126 C15 (UniProt Q9BV68) 0.0875
ILKAP C301 (UniProt Q9H0C8) 0.0694
MED28 C80 (UniProt Q9H204) 0.851
ILKAP C221 (UniProt Q9H0C8) -0.153
UniProt Q9BZL1_C6 0.194
SETD2 C1471 (UniProt Q9BYW2) -0.033
MRPL1 C279 (UniProt Q9BYD6) 0.106
UniProt Q9BTE3_C3 -0.0651
POLDIP3 C338 (UniProt Q9BY77) 0.147
TNKS1BP1 C1175 (UniProt Q9C0C2) 0.323
TNKS1BP1 C631 (UniProt Q9C0C2) 0.402
SETD2 C900 (UniProt Q9BYW2) 0.128
UniProt Q9BXJ9_C214 0.0769
HDHD3 C109 (UniProt Q9BSH5) 0.0497

Taken from the entries so far (3 entries):
log2 ratio of iodoacetamide-alkyne labeling, inactive:
ILKAP C301 (UniProt Q9H0C8) 0.0694
MED28 C80 (UniProt Q9H204) 0.851
ILKAP C221 (UniProt Q9H0C8) -0.153

Source: the supplement of paper PMC11006884
